Data published in patent US20130309233A1.
Results are given in words; binding and its absence hold for the method and conditions named. Some results given as binding are weak or reduced against the parent protein; the word gives no strength. Each block holds one binder with its values, some of them ahead of it.

Target: soluble EGFR (UniProt P00533)
Experiment: binding of purified IgG to soluble EGFR, method not detailed

binding: binds
B1: B4 (antibody, IgG1, V domains shown)
VH: QVQLVQSGAEVKKPGSAVKVSCKASGGTFSSYAISWVRQAPGQGLEWMGGIIPILGTADYAQKFQGRVTITADESTSTAYMELSSLRSEDTAVYYCARDEIPLEYCTSTSCYHAFDIWGQGTMVTVSS
VL: NIQMTQSPPSLSAFVGDRVTITCQASQAINNYLNWYQQKPGKAPKLLIYDASNLETGVPSRFSGSGSGTDFTFTISSLQPEDNATYYCQQYDKLPLTFGGGTKVEIK

binding: binds
B2: B5 (antibody, IgG1, V domains shown)
VH: QMQLVQSWAEVKKPGASVKVSCKASAYTFTNYYIHWVRQAPGQGLEWMGIINPSSGATTYAQRLQGRVIMTRDTSTSTVNMELSSLRSEDTAVYYCARSTLWFSEFDYWGQGTLVTVSS
VL: QSVLTQPASVSGSPGQSITISCTGTTSDVGGFNYVSWYQQHPGKVPKLIIFDVSNRPSSVSDRFSGSKSVNTASLTISGLQAEDEADYYCSSYTDSGSYIFGTGTKVTVL

binding: binds
B3: A6 (antibody, IgG1, V domains shown)
VH: QVQLVQSGAEVKKPGSSVKVSCKASGGTFRNHAFSWVRQAPGQGLEWMGWISAYNGYTHYAEKLQGRVTMTTDTSTSTAYMELRSLRSDDTAVYYCARVSASYNSDWSLHYYYGMDVWGQGTTVTVSS
VL: QSVLTQPPSVSAAPGQEVTISCSGSNSNIGNNYVSWYQQLPGTAPKLLIYDNNERPSGIPDRFSGSKSGTSATLGITGLQTGDEADYYCGTWDSSLSAGVFGGGTKLTVL
